The list shows a part of the results. The calls rarely recur for the same compound in another form.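 Kinases were expressed as nanoluciferase fusions in K562 cells and luminescence was read every 4 h between 2 and 18 h as percent of control, DMSO set to 100% and a positive control to 0%. A time point counts as decreased when the signal drops significantly (2 sigma). The hit call is the authors' own, does not follow from the count of time points alone, and its rule is not shown.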
Legend:
Assay in all cases: number of time points (of 5) at which kinase-Nluc abundance scored as decreased, DMSO-normalised (count); higher = more persistent destabilization
Sorafenib = compound: CNC(=O)c1cc(Oc2ccc(NC(=O)Nc3ccc(Cl)c(C(F)(F)F)c3)cc2)ccn1 [Sorafenib]; conditions: 2.5 µM; K562; 2-18 h
[1] = compound: COc1cc(N2CCC(N3CCN(C)CC3)CC2)ccc1Nc1ncc(Cl)c(Nc2ccccc2S(=O)(=O)C(C)C)n1; conditions: 2.5 µM; K562; 2-18 h
Bosutinib = compound: COc1cc(Nc2c(C#N)cnc3cc(OCCCN4CCN(C)CC4)c(OC)cc23)c(Cl)cc1Cl [Bosutinib]; conditions: 2.5 µM; K562; 2-18 h
Gefitinib = compound: COc1cc2ncnc(Nc3ccc(F)c(Cl)c3)c2cc1OCCCN1CCOCC1 [Gefitinib]; conditions: 10 µM; K562; 2-18 h
[2] = compound: COc1cc2ncnc(Nc3cccc(Br)c3)c2cc1OC; conditions: 10 µM; K562; 2-18 h
[3] = compound: COc1ccc(-c2c[nH]c3nccc(-c4ccsc4)c23)c(OC)c1; conditions: 10 µM; K562; 2-18 h
[4] = compound: COc1ccc(-c2cc(C(=O)NN=C(C)c3ccc(OC)c(OC)c3)[nH]n2)cc1; conditions: 10 µM; K562; 2-18 h
[5] = compound: COc1ccc(-c2cc3nccn3c(Nc3ncccc3C(N)=O)n2)cc1OC [BAY 61-3606 (dihydrochloride)]; conditions: 2.5 µM; K562; 2-18 h
[6] = compound: COc1ccc(CNC(=O)Nc2ncc([N+](=O)[O-])s2)cc1; conditions: 2.5 µM; K562; 2-18 h
[7] = compound: COc1nccc(-c2c(-c3ccc(F)cc3)ncn2C2CCNCC2)n1; conditions: 10 µM; K562; 2-18 h
HDACs/mTOR Inhibitor 1 = compound: C[C@@H]1CN(C(=O)Nc2ccc(-c3nc(N4CCOCC4)c4cnn(CCCCCCC(=O)NO)c4n3)cc2)CCO1 [HDACs/mTOR Inhibitor 1]; conditions: 10 µM; K562; 2-18 h
[8] = compound: C[C@@]1(C(=O)Nc2ccc(F)nc2)CCCN1c1nc(Nc2cc(C3CC3)n[nH]2)c2cccn2n1; conditions: 10 µM; K562; 2-18 h
Fenebrutinib = compound: C[C@H]1CN(C2COC2)CCN1c1ccc(Nc2cc(-c3ccnc(N4CCn5c(cc6c5CC(C)(C)C6)C4=O)c3CO)cn(C)c2=O)nc1 [Fenebrutinib]; conditions: 10 µM; K562; 2-18 h
[9] = compound: COc1cc(N2CCN(C)CC2)ccc1Nc1nccc(-c2cn(C)c3cnccc23)n1; conditions: 10 µM; K562; 2-18 h
Quercitrin = compound: C[C@@H]1O[C@@H](Oc2c(-c3ccc(O)c(O)c3)oc3cc(O)cc(O)c3c2=O)[C@H](O)[C@H](O)[C@H]1O [Quercitrin]; conditions: 10 µM; K562; 2-18 h
Vandetanib = compound: COc1cc2/c(=N/c3ccc(Br)cc3F)nc[nH]c2cc1OCC1CCN(C)CC1 [Vandetanib]; conditions: 2.5 µM; K562; 2-18 h

Sequences of proteins named here, by UniProt entry; tags and fusion partners are left off. A change or cut given only in a name is not applied to a line headed by its entry.
UniProt Q9UQB9: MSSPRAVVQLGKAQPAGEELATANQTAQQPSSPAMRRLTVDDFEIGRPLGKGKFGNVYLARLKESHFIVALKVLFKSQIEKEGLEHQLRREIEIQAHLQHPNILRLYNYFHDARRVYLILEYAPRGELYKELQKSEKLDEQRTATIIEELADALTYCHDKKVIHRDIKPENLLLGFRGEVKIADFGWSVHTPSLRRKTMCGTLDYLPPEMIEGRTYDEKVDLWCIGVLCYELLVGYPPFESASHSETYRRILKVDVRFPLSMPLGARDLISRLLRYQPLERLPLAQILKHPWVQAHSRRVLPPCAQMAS
UniProt P15056, whole entry, looked up: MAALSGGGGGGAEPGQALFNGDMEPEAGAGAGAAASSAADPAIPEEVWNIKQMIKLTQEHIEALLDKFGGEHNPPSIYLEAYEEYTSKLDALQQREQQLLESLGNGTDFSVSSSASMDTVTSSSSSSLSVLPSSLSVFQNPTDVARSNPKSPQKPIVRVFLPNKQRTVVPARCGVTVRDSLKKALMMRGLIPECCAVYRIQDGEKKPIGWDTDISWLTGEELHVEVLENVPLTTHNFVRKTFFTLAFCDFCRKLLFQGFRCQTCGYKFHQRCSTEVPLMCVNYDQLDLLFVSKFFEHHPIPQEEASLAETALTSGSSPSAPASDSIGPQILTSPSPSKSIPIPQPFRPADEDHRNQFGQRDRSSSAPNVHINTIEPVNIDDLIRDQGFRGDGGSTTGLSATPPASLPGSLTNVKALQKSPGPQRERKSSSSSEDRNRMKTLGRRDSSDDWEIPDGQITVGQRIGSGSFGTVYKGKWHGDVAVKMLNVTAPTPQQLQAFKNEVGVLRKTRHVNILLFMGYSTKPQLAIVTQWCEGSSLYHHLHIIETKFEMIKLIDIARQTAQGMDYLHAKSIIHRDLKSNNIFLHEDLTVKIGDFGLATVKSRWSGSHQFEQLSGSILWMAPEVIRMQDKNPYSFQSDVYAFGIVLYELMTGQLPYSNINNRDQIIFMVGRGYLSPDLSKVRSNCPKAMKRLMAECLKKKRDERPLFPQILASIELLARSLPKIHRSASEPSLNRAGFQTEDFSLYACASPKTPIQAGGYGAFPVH
UniProt P06239: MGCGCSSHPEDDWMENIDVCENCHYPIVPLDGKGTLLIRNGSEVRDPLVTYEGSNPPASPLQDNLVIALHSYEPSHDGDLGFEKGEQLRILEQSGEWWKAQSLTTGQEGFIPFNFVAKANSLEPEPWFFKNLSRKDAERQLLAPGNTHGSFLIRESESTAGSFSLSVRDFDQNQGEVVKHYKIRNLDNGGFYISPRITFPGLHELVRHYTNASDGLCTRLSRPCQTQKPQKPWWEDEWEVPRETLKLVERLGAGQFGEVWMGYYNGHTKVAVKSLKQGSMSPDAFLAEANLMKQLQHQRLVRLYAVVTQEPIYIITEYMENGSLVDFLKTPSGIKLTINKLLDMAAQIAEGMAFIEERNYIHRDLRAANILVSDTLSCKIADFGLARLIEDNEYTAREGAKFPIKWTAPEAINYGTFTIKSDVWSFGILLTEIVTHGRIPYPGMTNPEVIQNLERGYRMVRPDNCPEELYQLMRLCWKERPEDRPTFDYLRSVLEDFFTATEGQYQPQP
UniProt P36888, whole entry: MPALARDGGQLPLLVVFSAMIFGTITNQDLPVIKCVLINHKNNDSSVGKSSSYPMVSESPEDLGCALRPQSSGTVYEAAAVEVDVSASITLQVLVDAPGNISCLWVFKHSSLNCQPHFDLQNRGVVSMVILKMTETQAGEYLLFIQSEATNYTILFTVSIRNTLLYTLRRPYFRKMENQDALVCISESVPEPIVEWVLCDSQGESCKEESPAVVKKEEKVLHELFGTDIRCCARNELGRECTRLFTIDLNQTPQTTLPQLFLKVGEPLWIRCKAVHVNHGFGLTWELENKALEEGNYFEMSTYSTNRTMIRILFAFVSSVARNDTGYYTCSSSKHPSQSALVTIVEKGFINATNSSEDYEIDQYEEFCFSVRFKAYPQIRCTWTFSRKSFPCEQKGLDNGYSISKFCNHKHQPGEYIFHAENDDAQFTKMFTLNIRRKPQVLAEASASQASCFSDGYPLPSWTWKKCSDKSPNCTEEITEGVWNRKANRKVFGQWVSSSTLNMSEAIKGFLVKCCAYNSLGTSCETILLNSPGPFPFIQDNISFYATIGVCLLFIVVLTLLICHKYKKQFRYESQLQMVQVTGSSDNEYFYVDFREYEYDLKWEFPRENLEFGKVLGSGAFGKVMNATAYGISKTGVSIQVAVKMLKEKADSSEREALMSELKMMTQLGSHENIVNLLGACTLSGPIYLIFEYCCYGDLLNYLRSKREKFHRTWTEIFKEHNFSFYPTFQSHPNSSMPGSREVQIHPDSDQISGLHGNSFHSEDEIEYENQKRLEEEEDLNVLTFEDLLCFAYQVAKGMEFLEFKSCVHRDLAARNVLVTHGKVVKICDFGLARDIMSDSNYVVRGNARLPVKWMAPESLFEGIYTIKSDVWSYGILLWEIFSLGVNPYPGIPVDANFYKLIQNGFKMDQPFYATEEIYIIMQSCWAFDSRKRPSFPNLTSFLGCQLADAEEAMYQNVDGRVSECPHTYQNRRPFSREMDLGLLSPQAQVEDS
UniProt P29317, whole entry: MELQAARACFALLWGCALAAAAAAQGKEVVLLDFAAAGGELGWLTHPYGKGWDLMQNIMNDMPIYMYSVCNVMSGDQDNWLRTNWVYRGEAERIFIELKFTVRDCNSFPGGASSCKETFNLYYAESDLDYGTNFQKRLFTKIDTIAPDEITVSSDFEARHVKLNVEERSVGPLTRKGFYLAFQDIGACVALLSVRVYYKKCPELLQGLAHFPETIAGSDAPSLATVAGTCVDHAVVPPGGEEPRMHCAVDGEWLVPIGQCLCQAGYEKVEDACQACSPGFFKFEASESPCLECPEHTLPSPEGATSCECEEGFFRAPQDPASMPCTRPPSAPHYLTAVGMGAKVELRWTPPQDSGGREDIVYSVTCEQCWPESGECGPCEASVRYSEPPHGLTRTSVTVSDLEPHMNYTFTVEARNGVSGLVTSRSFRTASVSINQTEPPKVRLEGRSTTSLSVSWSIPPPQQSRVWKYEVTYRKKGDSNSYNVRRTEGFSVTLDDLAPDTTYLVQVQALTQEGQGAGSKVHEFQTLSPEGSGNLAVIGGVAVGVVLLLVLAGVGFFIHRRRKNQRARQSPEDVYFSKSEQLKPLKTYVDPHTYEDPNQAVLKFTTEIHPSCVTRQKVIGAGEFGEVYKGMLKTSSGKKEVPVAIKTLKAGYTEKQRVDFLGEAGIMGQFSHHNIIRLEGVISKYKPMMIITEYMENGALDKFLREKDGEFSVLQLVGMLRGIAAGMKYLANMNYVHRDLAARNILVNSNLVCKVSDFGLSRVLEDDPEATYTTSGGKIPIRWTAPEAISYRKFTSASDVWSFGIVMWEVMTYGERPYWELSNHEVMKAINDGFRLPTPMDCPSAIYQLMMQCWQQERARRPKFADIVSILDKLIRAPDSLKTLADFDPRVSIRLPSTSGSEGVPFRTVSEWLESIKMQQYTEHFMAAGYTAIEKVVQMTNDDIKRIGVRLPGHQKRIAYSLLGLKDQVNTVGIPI
UniProt Q12851: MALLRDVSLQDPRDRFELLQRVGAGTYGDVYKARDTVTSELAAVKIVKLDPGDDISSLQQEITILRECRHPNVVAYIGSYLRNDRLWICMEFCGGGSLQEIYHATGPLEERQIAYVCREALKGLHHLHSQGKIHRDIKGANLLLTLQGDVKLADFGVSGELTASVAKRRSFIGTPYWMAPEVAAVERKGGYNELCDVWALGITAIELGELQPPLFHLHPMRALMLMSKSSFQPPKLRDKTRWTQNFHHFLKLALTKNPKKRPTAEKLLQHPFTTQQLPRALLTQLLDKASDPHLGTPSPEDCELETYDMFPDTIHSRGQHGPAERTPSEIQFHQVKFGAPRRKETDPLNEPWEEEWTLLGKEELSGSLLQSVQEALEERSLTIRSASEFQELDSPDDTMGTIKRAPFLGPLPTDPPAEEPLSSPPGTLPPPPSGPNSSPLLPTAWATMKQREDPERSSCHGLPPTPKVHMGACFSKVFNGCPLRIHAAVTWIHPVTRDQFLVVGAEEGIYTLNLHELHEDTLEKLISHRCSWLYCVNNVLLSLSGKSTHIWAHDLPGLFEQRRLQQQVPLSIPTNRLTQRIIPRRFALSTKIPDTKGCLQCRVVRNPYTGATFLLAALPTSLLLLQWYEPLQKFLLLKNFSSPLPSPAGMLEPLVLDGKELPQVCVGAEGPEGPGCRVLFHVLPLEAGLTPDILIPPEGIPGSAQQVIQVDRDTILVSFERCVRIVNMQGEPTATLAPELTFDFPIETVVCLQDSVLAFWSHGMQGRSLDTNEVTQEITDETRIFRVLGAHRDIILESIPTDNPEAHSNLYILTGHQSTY
UniProt P51813: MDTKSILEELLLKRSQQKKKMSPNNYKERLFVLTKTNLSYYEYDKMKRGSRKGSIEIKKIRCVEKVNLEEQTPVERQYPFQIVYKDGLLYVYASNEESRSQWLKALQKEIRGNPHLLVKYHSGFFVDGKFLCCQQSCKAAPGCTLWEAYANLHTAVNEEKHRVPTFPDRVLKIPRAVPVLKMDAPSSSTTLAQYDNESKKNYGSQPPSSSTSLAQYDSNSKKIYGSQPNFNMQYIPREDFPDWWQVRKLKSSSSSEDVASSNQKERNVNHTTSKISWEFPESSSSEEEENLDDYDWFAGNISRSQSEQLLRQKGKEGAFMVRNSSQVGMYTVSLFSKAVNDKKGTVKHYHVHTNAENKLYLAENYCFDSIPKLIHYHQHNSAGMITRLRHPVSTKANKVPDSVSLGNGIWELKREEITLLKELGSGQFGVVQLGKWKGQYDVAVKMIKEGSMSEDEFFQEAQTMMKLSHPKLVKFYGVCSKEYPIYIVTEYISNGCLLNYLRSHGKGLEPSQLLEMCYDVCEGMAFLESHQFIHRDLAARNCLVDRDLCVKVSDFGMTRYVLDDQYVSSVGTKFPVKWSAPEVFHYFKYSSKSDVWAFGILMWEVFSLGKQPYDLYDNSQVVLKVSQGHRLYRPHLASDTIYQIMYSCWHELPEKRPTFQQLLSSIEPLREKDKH
UniProt Q96GD4, whole entry: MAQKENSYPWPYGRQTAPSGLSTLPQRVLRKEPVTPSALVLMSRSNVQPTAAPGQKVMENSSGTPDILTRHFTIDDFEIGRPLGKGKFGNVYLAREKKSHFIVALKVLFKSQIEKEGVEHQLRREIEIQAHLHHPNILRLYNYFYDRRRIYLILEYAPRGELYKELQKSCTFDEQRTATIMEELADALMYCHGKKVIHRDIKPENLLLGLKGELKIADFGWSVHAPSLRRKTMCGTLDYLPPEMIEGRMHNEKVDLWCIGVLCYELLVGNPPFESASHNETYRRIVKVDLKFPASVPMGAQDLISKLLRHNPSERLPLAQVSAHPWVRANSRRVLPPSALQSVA
UniProt O14965: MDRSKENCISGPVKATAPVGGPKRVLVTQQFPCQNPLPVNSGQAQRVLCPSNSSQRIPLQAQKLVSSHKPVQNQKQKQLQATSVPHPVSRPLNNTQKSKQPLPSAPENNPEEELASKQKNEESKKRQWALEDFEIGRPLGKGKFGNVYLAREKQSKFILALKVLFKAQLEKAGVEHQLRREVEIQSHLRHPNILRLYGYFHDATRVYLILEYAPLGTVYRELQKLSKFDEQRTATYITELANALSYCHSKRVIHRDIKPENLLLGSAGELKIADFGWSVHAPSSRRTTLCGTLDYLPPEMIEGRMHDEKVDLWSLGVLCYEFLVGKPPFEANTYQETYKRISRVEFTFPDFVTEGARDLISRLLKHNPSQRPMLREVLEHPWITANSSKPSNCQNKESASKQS

Target | number of time points (Sorafenib) | number of time points [1] | number of time points (Bosutinib) | number of time points (Gefitinib) | number of time points [2] | number of time points [3] | number of time points [4] | number of time points [5] | number of time points [6] | number of time points [7] | number of time points (HDACs/mTOR Inhibitor 1) | number of time points [8] | number of time points (Fenebrutinib) | number of time points [9] | number of time points (Quercitrin) | number of time points (Vandetanib)
AURKC (UniProt Q9UQB9) | 0 | 0 | 0 | 0 | 0 | 0 | 0 | 0 | 0 | 0 | 0 | 0 | 0 |  |  | 
EGFR_G719S_T790M (UniProt P00533) |  | 0 | 0 |  |  | 2 | 0 | 0 |  |  | 0 | 0 | 0 | 0 | 0 | 
EGFR_L861Q (UniProt P00533) |  | 0 | 2 |  |  | 2 | 1 | 0 |  |  | 0 | 0 | 0 | 0 | 0 | 
BRAF (UniProt P15056) |  | 0 | 0 | 0 | 0 | 0 | 0 | 0 | 0 | 0 | 0 | 0 | 0 | 0 | 0 | 0
CSF1R (UniProt P07333) |  | 0 | 0 | 0 | 0 |  | 5 | 0 | 0 | 0 | 0 |  | 0 | 0 | 0 | 
LCK (UniProt P06239) |  | 0 | 0 |  | 0 | 0 | 0 | 0 | 0 | 0 | 0 |  | 0 | 0 | 0 | 
EGFR_L858R (UniProt P00533) |  | 0 | 0 |  |  | 0 | 0 | 0 |  |  | 0 | 0 | 0 | 0 | 0 | 
FLT3 (UniProt P36888) | 0 |  | 3 | 0 | 0 | 1 | 0 | 0 | 0 | 0 | 0 |  | 0 | 0 | 0 | 0
EGFR_G719S (UniProt P00533) |  | 0 | 1 |  |  | 0 | 2 | 0 |  |  | 0 | 0 | 0 | 0 | 0 | 
EPHA2 (UniProt P29317) | 0 | 0 |  | 0 | 0 | 0 | 0 | 0 | 0 | 0 | 0 |  | 0 | 0 | 0 | 0
EGFR (UniProt P00533) |  | 0 | 1 |  |  | 0 | 0 | 0 |  |  | 0 | 0 | 0 | 0 | 0 | 
FGFR1 (UniProt P11362) | 0 | 0 | 1 | 0 |  | 0 | 2 | 0 | 0 | 0 | 0 |  | 0 | 0 | 0 | 
MAP4K2 (UniProt Q12851) | 0 | 0 | 0 | 0 | 0 | 0 | 0 | 0 | 0 | 0 | 0 | 0 | 0 | 0 | 0 | 
ABL1 (UniProt P00519) |  | 0 |  |  |  |  | 3 | 0 | 0 | 0 | 0 | 4 | 0 | 0 | 0 | 
FGFR3 (UniProt P22607) | 0 | 0 | 0 | 0 | 0 | 0 | 0 | 0 | 0 | 0 | 0 |  | 0 | 0 | 0 | 
BMX (UniProt P51813) | 0 |  |  | 2 |  | 2 | 0 | 0 | 0 | 0 | 0 | 0 |  | 0 | 0 | 0
AURKB (UniProt Q96GD4) |  | 0 | 0 | 0 | 0 | 0 | 0 | 0 | 0 | 0 | 0 | 0 | 0 | 0 | 0 | 0
AURKA (UniProt O14965) | 0 | 0 | 1 | 0 | 0 | 0 | 0 | 0 | 0 | 0 |  | 0 | 0 | 0 | 0 | 
RIPK2 (UniProt O43353) | 0 | 0 | 1 |  | 0 | 0 | 0 | 0 | 0 | 0 | 0 | 0 | 0 | 0 | 0 | 0

Some values from the entries so far:
Value of MAP4K2 (UniProt Q12851) under number of time points [9]: 0
Value of FGFR3 (UniProt P22607) under number of time points (HDACs/mTOR Inhibitor 1): 0

Source: the supplement of paper PMC12823440, “Inhibitors supercharge kinase turnover through native proteolytic circuits” (Nature, 2025)
